Laboratory results published in the M2OR odorant receptor database.
This is a selection; strong and weak results do not stand in their true shares. The calls were merged from several studies; some rest on single wells. The list shows a part of the results.

Legend:
Conditions in all cases: stereoisomer not certain
OR52K2 (Homo sapiens) = target: T1, OR52K2 (Homo sapiens) (UniProt Q8NGK3)
T1 sequence (whole entry): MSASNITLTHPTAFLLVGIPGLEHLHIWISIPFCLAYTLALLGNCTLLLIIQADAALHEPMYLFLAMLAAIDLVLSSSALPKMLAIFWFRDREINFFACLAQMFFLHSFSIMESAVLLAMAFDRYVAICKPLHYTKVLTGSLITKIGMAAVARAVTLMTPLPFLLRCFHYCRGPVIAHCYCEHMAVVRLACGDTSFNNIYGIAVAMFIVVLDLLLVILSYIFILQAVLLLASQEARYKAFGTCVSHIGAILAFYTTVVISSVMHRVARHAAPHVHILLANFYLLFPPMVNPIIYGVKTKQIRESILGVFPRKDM
Method in brief: (§1)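 Values were gathered from published papers (main text and supplementary material), with extra details requested from the original authors when needed, and checked for typos and inconsistencies. Each receptor–molecule pair is called responsive (active) if the original authors judged the measured signal statistically different from baseline, and non-responsive (inactive) otherwise. Assay methods varied by source, often transient mammalian cell-line luciferase assays. Recorded details include cell line, G-protein, co-transfected protein and tags.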

OR52N5 (Homo sapiens) = target: T2, OR52N5 (Homo sapiens) (UniProt Q8NH56)
T2 sequence (whole entry): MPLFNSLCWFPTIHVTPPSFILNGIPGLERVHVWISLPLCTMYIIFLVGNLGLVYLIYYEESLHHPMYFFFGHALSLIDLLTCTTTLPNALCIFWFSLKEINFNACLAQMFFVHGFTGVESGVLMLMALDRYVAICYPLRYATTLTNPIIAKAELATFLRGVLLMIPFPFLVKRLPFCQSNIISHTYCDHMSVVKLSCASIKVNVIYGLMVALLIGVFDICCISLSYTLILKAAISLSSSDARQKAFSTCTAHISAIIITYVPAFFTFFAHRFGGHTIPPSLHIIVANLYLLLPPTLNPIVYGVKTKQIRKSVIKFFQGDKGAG
Method in brief: as §1

OR56A1 (Homo sapiens) = target: T3, OR56A1 (Homo sapiens) (UniProt Q8NGH5)
T3 sequence (whole entry): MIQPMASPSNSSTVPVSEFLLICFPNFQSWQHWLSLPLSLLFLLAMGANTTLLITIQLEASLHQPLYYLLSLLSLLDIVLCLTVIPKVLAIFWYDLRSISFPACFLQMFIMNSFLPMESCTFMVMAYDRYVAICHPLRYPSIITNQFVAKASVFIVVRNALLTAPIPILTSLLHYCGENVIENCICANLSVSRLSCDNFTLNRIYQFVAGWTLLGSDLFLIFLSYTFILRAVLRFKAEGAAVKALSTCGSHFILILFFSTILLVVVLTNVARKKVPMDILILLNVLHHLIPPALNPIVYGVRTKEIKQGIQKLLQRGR
Method in brief: as §1

OR56A4 (Homo sapiens) = target: T4, OR56A4 (Homo sapiens) (UniProt Q8NGH8)
T4 sequence (whole entry): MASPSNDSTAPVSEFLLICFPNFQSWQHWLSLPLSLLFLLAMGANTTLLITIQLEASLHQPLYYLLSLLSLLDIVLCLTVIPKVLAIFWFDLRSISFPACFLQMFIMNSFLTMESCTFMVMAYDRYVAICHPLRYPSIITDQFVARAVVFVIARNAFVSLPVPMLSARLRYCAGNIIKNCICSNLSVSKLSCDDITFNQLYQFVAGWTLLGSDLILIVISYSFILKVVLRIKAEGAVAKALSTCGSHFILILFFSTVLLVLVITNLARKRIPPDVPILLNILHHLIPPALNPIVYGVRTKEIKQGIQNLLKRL
Method in brief: as §1

OR56A5 (Homo sapiens) = target: T5, OR56A5 (Homo sapiens) (UniProt P0C7T3)
T5 sequence (whole entry): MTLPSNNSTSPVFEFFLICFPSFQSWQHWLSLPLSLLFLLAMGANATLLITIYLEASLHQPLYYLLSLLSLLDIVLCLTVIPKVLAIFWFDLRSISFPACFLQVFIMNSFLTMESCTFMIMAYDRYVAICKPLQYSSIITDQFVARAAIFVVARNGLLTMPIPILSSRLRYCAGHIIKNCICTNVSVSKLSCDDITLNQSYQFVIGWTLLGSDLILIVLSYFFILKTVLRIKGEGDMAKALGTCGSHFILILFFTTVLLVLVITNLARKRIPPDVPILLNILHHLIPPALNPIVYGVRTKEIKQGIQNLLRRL
Method in brief: as §1

OR5A1 [1] = tested on: T6, OR5A1
T6 sequence (whole entry): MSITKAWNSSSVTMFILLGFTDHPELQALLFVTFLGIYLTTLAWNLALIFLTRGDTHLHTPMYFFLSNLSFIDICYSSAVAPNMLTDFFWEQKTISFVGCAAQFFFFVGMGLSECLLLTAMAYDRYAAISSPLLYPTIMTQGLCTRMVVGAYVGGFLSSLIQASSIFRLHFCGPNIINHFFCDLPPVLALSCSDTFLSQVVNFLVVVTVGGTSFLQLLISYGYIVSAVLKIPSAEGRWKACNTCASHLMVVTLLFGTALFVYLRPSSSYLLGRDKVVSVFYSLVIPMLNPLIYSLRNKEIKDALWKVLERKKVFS
Method in brief: as §1

OR5A1 [2] = tested on: T7, OR5A1; remark: listed apart in the source
T7 sequence (whole entry): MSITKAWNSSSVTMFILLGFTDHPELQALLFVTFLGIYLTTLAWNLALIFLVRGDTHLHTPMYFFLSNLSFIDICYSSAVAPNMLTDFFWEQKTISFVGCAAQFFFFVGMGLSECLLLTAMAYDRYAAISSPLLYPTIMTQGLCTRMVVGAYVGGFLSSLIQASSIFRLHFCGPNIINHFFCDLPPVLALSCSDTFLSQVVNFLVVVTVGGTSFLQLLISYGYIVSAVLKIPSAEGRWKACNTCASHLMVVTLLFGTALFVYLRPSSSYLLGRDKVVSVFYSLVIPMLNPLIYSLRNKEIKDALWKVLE
Method in brief: as §1

OR5A1 [3] = tested on: T8, OR5A1; remark: listed apart in the source
T8 sequence (whole entry): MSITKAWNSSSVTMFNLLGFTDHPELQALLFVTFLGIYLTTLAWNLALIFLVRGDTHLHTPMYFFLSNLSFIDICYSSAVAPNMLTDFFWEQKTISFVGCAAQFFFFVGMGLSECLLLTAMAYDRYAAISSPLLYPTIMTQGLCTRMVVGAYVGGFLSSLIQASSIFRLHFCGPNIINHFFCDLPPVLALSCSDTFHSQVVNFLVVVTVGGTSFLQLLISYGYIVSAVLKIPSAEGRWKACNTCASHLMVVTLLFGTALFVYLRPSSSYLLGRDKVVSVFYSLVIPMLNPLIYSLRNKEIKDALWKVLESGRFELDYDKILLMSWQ
Method in brief: as §1

OR5A2 (Homo sapiens) = target: T9, OR5A2 (Homo sapiens) (UniProt Q8NGI9)
T9 sequence (whole entry): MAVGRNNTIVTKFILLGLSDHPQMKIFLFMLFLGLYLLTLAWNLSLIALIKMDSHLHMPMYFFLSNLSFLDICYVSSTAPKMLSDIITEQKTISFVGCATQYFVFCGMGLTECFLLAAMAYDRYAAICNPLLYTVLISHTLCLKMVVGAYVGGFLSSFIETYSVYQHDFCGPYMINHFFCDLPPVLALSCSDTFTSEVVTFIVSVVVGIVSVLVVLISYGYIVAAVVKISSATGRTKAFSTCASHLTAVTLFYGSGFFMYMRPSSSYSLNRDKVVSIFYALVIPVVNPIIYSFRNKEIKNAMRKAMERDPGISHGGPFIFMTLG
Method in brief: as §1

OR5AK2 (Homo sapiens) = target: T10, OR5AK2 (Homo sapiens) (UniProt Q8NH90)
T10 sequence (whole entry): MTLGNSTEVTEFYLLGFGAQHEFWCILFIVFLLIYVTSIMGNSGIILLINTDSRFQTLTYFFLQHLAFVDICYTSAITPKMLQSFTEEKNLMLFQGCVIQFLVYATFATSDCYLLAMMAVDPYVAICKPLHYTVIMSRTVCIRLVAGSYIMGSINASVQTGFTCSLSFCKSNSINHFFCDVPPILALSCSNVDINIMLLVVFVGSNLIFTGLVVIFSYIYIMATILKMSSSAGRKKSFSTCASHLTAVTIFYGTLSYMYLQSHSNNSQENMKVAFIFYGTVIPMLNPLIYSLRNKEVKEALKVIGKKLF
Method in brief: as §1

Measured: odorant receptor agonist call

CCCCOC(C)=O
inactive: all assays above
